Laboratory results published in PMC12232897, “Harnessing Negative Photochromism in Styryl Cyanines for Light‐Modulated Proton Transport” (Angewandte Chemie (International Ed. in English), 2025).
Marks after values point to notes of the source that are not given here.

Assay: Photoisomerization quantum yield (total absorbance method)
Type: physicochemical
Conditions: ACN, 365 nm

| SMILES | QY [open →closed] in ACN |
| --- | --- |
| COc1ccc(O)c(/C=C/C2=Nc3ccccc3C2(C)C)c1 [1c] | 30% |
| CC1(C)C(/C=C/c2ccccc2O)=Nc2ccc(F)cc21 [1d] | 35% |
| COc1ccc2c(c1)C(C)(C)C(/C=C/c1ccccc1O)=N2 [1b] | 28% |
| CC1(C)C(/C=C/c2cc(F)ccc2O)=Nc2ccccc21 [1e] | 23% |
| CC1(C)C(/C=C/c2ccccc2O)=Nc2ccccc21 [1a] | 46% |

Same assay, conditions: Milliq Water used as solvent

| SMILES | QY [open →closed] |
| --- | --- |
| CC1(C)C(/C=C/c2ccccc2O)=Nc2ccc(S(=O)(=O)[O-])cc21.[K+] [1f] | 33% ^‡ |
